Measured values: the supplement of paper PMC11006884
Only a part is listed here, and it is no random draw.

Compound: COC(=O)C#Cc1ccccc1 [methyl 3-phenylpropiolate]
Assay: log2 ratio of iodoacetamide-alkyne labeling of the cysteine site, DMSO over compound (competition); higher = stronger covalent engagement of the cysteine by the compound, active = 1 or more
Conditions: 500 µM; treatment time 1 h; system: HEK293T cell lysate
Summary of the method: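 For each cysteine, the log2 competition ratio is mean control-channel reporter intensity over mean compound-channel reporter intensity. HEK293T lysate (2 mg/mL) was exposed to vehicle or electrophile (500 µM, 1 h, ambient temperature), labelled with iodoacetamide alkyne (1 h), clicked to sCIP-TMT reagents, digested overnight with trypsin at 37 °C, streptavidin-enriched and analysed by Orbitrap Eclipse LC-MS/MS with FAIMS and FragPipe. Cysteines quantified in only one of three replicates, each with duplicate channels, were excluded.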

| Target | log2 ratio of iodoacetamide-alkyne labeling |
| --- | --- |
| UniProt P62913_C21 | inactive: -0.0754 |
| HMGCS1 C268 (UniProt Q01581) | inactive: 0.467 |
| UniProt P62306_C66 | inactive: 0.0671 |
| SATB1 C529 (UniProt Q01826) | inactive: 0.0361 |
| HNRNPU C497 (UniProt Q00839) | inactive: 0.211 |
| UniProt P62873_C317 | inactive: 0.0711 |
| MPP1 C454 (UniProt Q00013) | inactive: 0.144 |
| KIF23 C791 (UniProt Q02241) | inactive: 0.847 |
| PAFAH1B2 C188 (UniProt P68402) | inactive: -0.139 |
| HNRNPU C648 (UniProt Q00839) | inactive: 0.201 |
| CLTC C666 (UniProt Q00610) | inactive: -0.187 |
| RPL18A C109 (UniProt Q02543) | inactive: -0.19 |
| RPL10A C164 (UniProt P62906) | inactive: -0.108 |
| UniProt P62280_C60 | active: 2.21 |
| SPTBN1 C1389 (UniProt Q01082) | inactive: -0.109 |
| HNRNPU C594 (UniProt Q00839) | inactive: 0.152 |
| EEF1A1 C370 (UniProt P68104) | inactive: 0.216 |
| HMGCS1 C12 (UniProt Q01581) | inactive: -0.00842 |
| UniProt P68431_C97 | inactive: -0.0154 |
| UniProt P62854_C77 | inactive: 0.434 |
| PURA C292 (UniProt Q00577) | inactive: 0.202 |
| HNRNPU C450 (UniProt Q00839) | inactive: 0.018 |

Pulled one by one from the list above:

| Target | log2 ratio of iodoacetamide-alkyne labeling |
| --- | --- |
| UniProt P62280_C60 | active: 2.21 |
| HMGCS1 C12 (UniProt Q01581) | inactive: -0.00842 |
